The values that follow come from PMC12866682 (2025).

The chains behind the UniProt entries cited, without tags or fusion partners. Where a name states a change or a piece, a line headed by the entry shows the natural chain unless it says otherwise.
UniProt P05164: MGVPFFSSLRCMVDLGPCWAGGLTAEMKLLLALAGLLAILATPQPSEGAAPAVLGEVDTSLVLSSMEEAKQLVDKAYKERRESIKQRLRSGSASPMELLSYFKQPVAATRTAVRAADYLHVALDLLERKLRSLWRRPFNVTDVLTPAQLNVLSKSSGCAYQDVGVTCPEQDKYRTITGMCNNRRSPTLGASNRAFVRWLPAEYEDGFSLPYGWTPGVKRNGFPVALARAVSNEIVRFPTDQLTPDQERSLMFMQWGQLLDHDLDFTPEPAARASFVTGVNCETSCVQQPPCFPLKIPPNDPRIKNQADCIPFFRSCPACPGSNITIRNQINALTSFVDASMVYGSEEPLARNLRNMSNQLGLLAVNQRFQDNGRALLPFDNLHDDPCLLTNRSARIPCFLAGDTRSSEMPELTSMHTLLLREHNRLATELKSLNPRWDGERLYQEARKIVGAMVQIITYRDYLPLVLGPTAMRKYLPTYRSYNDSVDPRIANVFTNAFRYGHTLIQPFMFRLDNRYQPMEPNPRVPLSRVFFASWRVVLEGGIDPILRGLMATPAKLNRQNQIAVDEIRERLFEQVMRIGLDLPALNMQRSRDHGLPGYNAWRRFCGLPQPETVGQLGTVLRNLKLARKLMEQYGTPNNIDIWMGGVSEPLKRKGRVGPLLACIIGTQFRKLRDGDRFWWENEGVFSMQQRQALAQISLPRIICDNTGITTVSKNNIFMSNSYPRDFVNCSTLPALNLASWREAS

Residue numbers refer to the chain shown, from its start. Like-named read-outs stand apart in the source and are kept apart here. These are yes or no findings as the source states them, for the method shown. In cells and extracts the contact can be indirect. Some results given as binding are weak or reduced against the parent protein; the word gives no strength. Where a sequence is shown, tags or fusion partners need not be part of it.

Common to all, as to assay: co-IP; HEK293T cells transfected with HA-tagged TREM2 and FLAG-tagged plasmids for 24 h; lysates immunoprecipitated with anti-HA beads (or anti-FLAG beads), Western blotting for HA and FLAG
On the technique in general: In western blotting, separated proteins are transferred to a membrane and probed.

Test [1] has as its target T1, HA-tagged TREM2, WT (full length, FL) (UniProt Q9NZC2).
T1 sequence: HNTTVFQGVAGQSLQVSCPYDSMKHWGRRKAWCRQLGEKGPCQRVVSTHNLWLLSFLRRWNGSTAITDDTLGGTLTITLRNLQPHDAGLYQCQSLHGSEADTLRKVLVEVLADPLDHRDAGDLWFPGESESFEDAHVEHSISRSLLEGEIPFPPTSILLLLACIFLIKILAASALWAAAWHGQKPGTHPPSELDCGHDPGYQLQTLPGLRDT

The target in the next test is T2, HA-tagged TREM2 T96K (UniProt Q9NZC2).
T2 sequence: T1 sequence with T78K

Test [2] deals with T1, HA-tagged TREM2, WT (full length, FL). The source holds these as a separate data set.

In the case of “FLAG-tagged MPO, full length (FL) (from UniProt P05164 49-745) (ligand)”, the binding result (in test [1]; with HA-tagged TREM2 T96K) was “binds” each time.

As to “FLAG-tagged heavy chain (H) of MPO (from UniProt P05164 279-745) (domain or fragment)”, the binding result in test [1] is given as “binds”.

B1: FLAG-tagged AZU1 (protein, UniProt P20160 27-251)
chain: IVGGRKARPRQFPFLASIQNQGRHFCGGALIHARFVMTAASCFQSQNPGVSTVVLGAYDLRRRERQSRQTFSISSMSENGYDPQQNLNDLMLLQLDREANLTSSVTILPLPLQNATVEAGTRCQVAGWGSQRSGGRLSRFPRFVNVTVTPEDQCRPNNVCTGVLTRRGGICNGDGGTPLVCEGLAHGVASFSLGPCGRGPDFFTRVALFRDWIDGVLNNPGPGPA
Take B1: the binding entry in test [2] is “no binding”.
